Data published in the supplement of paper PMC3682954.
Values joined by “and” are separate entries in the source; they are usually repeats but may differ in a detail not shown here. Identical values can stand only once. Counter-ions that a name gives are not always drawn. ± gives the standard deviation of the averaged measurements. The list shows a part of the results. Single values are uncertain, as repeats are few or missing.

Tested on: RAW 264.7
Test: HMGB1-induced TNF-alpha production relative to HMGB1-stimulated control; higher = more TNF-alpha secretion (less inhibition)
Conditions: stimulus: HMGB1 5 ug/ml, 18 h

SMILES	HMGB1-induced TNF-alpha production (compound concentration: 3 uM)	HMGB1-induced TNF-alpha production (compound concentration: 1 ug/ml) [%]
CCOC(=O)[C@H](CCc1ccccc1)N[C@@H](C)C(=O)N1[C@H](C(=O)O)C[C@H]2CCCC[C@@H]21 [Trandolapril]	108%	–
[Cl-].[Li+] [Lithium Chloride]	74.5%	–
CCC(=O)NS(=O)(=O)c1ccc(-c2c(-c3ccccc3)noc2C)cc1	65.7%	–
CCN(CC)CCNC(=O)c1ccc(NC(C)=O)cc1 [N-Acetylprocainamide hydrochloride]	82.1%	–
CCN(CC)CCNC(=O)c1ccc(NC(C)=O)cc1	83.6%	–
CCCCCCN(CCCCCC)C(=O)Cc1c(-c2ccc(F)cc2)[nH]c2ccccc12 [N,N-Dihexyl-2-(4-fluorophenyl)indole-3-acetamide]	79.6%	–
CC(=O)NNC(=O)N1Cc2ccccc2Oc2ccc(Cl)cc21	124%	–
CNC[C@H](O)c1cccc(O)c1	56%	–
CNC[C@H](O)c1cccc(O)c1 [Phenylephrine hydrochloride]	79.5%	–
Cc1ccccc1/C=C/C1=NCCN1 [Metrazoline oxalate]	85.2%	–
CC(=O)O[C@]1(C(C)=O)CC[C@H]2[C@@H]3C=C(C)C4=CC(=O)CC[C@@H]4[C@H]3CC[C@@]21C [Nomegestrol acetate]	115%	–
COc1ccc(CCN(C)CCc2ccc(OC)c(OC)c2)cc1OC [YS-035 hydrochloride]	105%	–
CC[N+](CC)(CC)CC [Tetraethylammonium chloride]	101%	–
Cc1cccc(-c2[nH]c(C(C)(C)C)nc2-c2ccc3nccnc3c2)n1	108%	–
CC[C@@]1(O)C(=O)OCc2c1cc1n(c2=O)Cc2cc3cc(O)ccc3nc2-1 [10-Hydroxycamptothecin]	58.9%	–
CC[C@@]1(O)C(=O)OCc2c1cc1n(c2=O)Cc2cc3cc(O)ccc3nc2-1	82.1%	–
NS(=O)(=O)c1cc2c(cc1Cl)N=C(CSCc1ccccc1)NS2(=O)=O	85.1%	–
NS(=O)(=O)c1cc2c(cc1Cl)N=C(CSCc1ccccc1)NS2(=O)=O [Benzthiazide]	119%	–
Clc1ccc2c(c1)N=C(N1CCNCC1)c1ccccc1N2 [N-Desmethylclozapine]	73.6%	–

SMILES	HMGB1-induced TNF-alpha production (compound concentration: 3 uM)	HMGB1-induced TNF-alpha production (compound concentration: 1 ug/ml) [%]
CC(=O)OC/C=C(C)/C=C/C=C(C)/C=C/C1=C(C)CCCC1(C)C	87.4%	–
CC(=O)OC/C=C(C)/C=C/C=C(C)/C=C/C1=C(C)CCCC1(C)C [Vitamin A acetate]	85.9%	–
O=C1C(CC[S+]([O-])c2ccccc2)C(=O)N(c2ccccc2)N1c1ccccc1 (stereo unspecified) [Sulfinpyrazone]	53.7%	–
O=C1C(CC[S+]([O-])c2ccccc2)C(=O)N(c2ccccc2)N1c1ccccc1 (stereo unspecified)	95.1%	–
O=C1NC(=O)/C(=C/c2ccc(-c3ccc(F)cc3O)o2)S1	113%	–
CC(=O)Oc1cc(C(F)(F)F)ccc1C(=O)O [Triflusal]	61.8%	–
N=c1ccn2c(n1)O[C@H]1[C@H](O)[C@@H](CO)O[C@H]12 [Ancitabine hydrochloride]	110%	–
N=c1ccn2c(n1)O[C@H]1[C@H](O)[C@@H](CO)O[C@H]12	102 ± 2.5%	–
N=c1ccn2c(n1)O[C@H]1[C@H](O)[C@@H](CO)O[C@H]12 [Cyclocytidine]	77.6%	–
C[N+](C)(C)CCO.[Br-] [Choline bromide]	87.9%	–
CCCCCCCC/C=C\CCCCCCCC(=O)NCc1ccc(O)c(OC)c1 [Olvanil]	105%	–
O=c1[nH]cc(F)c(=O)[nH]1 [5-fluorouracil]	76.4%	–
O=c1[nH]cc(F)c(=O)[nH]1	87.1 ± 6.4%	–
O=c1[nH]cc(F)c(=O)[nH]1 [5-Fluorouracil]	102 ± 17%	–
C[C@]12C=CC(=O)C=C1CC[C@@H]1[C@@H]2[C@@H](O)C[C@@]2(C)[C@H]1CC[C@]2(O)C(=O)CO	39.3%	–
C[C@]12C=CC(=O)C=C1CC[C@@H]1[C@@H]2[C@@H](O)C[C@@]2(C)[C@H]1CC[C@]2(O)C(=O)CO [Prednisolone]	36.7 ± 4.7%	–
CC(C)Cc1ccc([C@H](C)C(=O)O)cc1 [S(+)-Ibuprofen]	110%	–
CC(C)Cc1ccc([C@H](C)C(=O)O)cc1 [S-(+)-ibuprofen]	125%	–
CS(=O)(=O)c1ccc([C@@H](O)[C@@H](CO)NC(=O)C(Cl)Cl)cc1	124%	–

SMILES	HMGB1-induced TNF-alpha production (compound concentration: 3 uM)	HMGB1-induced TNF-alpha production (compound concentration: 1 ug/ml) [%]
CS(=O)(=O)c1ccc([C@@H](O)[C@@H](CO)NC(=O)C(Cl)Cl)cc1 [Thiamphenicol]	72.8%	–
O=C(O)Cc1ccccc1Nc1c(Cl)cccc1Cl [Diclofenac]	95.9%	–
O=C(O)Cc1ccccc1Nc1c(Cl)cccc1Cl [Diclofenac sodium]	102 ± 9.5%	–
C[C@@H](c1ncncc1F)[C@](O)(Cn1cncn1)c1ccc(F)cc1F	99.8%	–
CN1CCN(CCCN2c3ccccc3Sc3ccc(S(=O)(=O)N(C)C)cc32)CC1 [Thioproperazine dimesylate]	64.4%	–
Cc1cc2c(C(C)C)c(O)c(O)c(/C=N/NC(=O)c3ccoc3C)c2c(O)c1-c1c(C)cc2c(C(C)C)c(O)c(O)c(/C=N/NC(=O)c3ccoc3C)c2c1O	–	70.4
COC(=O)C1=C(C)NC(C)=C(C(=O)OC)C1c1ccccc1[N+](=O)[O-]	89.3 ± 18%	–
COC(=O)C1=C(C)NC(C)=C(C(=O)OC)C1c1ccccc1[N+](=O)[O-] [Nifedipine]	88.1 ± 30%	–
CNC(=O)[C@H]1O[C@@H](n2cnc3c(NCc4ccc(N)cc4)ncnc32)[C@H](O)[C@@H]1O	92.2%	–
COc1cc2c(cc1O)CC[C@@H]1[C@@H]2CC[C@]2(C)[C@@H](O)CC[C@@H]12 [2-methoxyestradiol]	130%	–
Clc1ccccc1CN1CCc2sccc2C1 [Ticlopidine]	99.2%	–
Clc1ccccc1CN1CCc2sccc2C1	87% and 91.6%	–
Clc1ccccc1CN1CCc2sccc2C1 [Ticlopidine hydrochloride]	54.2%	–
CCN(CC)CCOC(=O)C1(c2ccc([N+](=O)[O-])cc2)CCCC1 [Nitrocaramiphen hydrochloride]	63.9%	–
Nc1ccc(O)c(C(=O)O)c1 [Mesalamine]	118%	–
Nc1ccc(O)c(C(=O)O)c1	94.5%	–
Nc1ccc(O)c(C(=O)O)c1 [5-Amino-2-hydroxy-benzoic acid]	106%	–
Nc1ccc(O)c(C(=O)O)c1 [5-Aminosalicylic acid]	98%	–
